The list is a part of this screen's results and no random one: it gathers tests that were run many times, whatever their T/C, doses with no T/C, and many T/C values between a quarter and a half above the control. Further doses and runs are listed elsewhere. T/C gives the treated animals as a percentage of the vehicle group. Some doses have a count of surviving animals in place of a T/C: the source holds a T/C of zero for them, seemingly a mark for toxic or unscored doses. Some doses without a T/C left all or most animals alive at the check, yet need not have been tolerated: survival well below the control is almost never listed, so the zero probably covers shortened survival too. Counts of survivors are from the toxicity check (mostly the fifth day) where no day follows; animals may have died later. Schedule codes are those of the source, read here as Q, the interval in days (D) or hours (H), X, the number of doses. Some entries were tested several times; their values stand side by side, smallest first. For survival time, the PubChem record calls one and a half times the control and up active, and a quarter to a half above the control has no call in these data; cut-offs in other NCI protocols can differ. Some T/C values carry the count of animals alive at the toxicity check (mostly the fifth day); without a count, all were alive then.
Tested on: BDF1 mice, Lewis lung carcinoma iv, survival T/C
Experiment: NCI In Vivo Anticancer Drug Screen. Data for tumor model Lewis Lung Carcinoma (intravenous) in B6D2F1 (BDF1) mice
Conditions: T/C endpoint: median survival time, higher T/C = longer survival
Experimental: The antitumor activity of compounds was measured in mice bearing transplantable tumors. Survival or tumor size were measured and the results are expressed as the measurement made in the treated group (T) divided by the measurement made in the vehicle treated control group (C). The tumor model used in this assay is Lewis Lung Carcinoma (intravenous) in B6D2F1 (BDF1) mice

[1] = dose: 200.0 mg/kg/injection, schedule: Q01DX009 (ip), vehicle: Klucel (hydroxypropylcellulose) (HPC)
[2] = dose: 400.0 mg/kg/injection, schedule: Q01DX009 (ip), vehicle: saline with Tween-80

O=C(O)c1ccc(C(=O)O)c(C(=O)O)c1.[NH-]C1CCCCC1[NH-].[Pt+2]
survivor count (dose: 6.25 mg/kg/injection, schedule: Q01DX009 (ip), vehicle: sodium bicarbonate): 10 of 10
survivor count (dose: 12.5 mg/kg/injection, schedule: Q01DX009 (ip), vehicle: sodium bicarbonate): 10 of 10

O=C1C=CC(=O)N1c1ccc(Cl)cc1
survivor count (dose: 20.0 mg/kg/injection, schedule: Q01DX009 (ip), vehicle: Klucel (hydroxypropylcellulose) (HPC)): 2 of 10
survivor count (dose: 40.0 mg/kg/injection, schedule: Q01DX009 (ip), vehicle: Klucel (hydroxypropylcellulose) (HPC)): 0 of 10

C=C(C)C(=O)OCC1CO1 (configuration not stated)
survivor count [1]: 6 of 10

CCC1(O)CC2CN(CCc3c([nH]c4ccccc34)C(C(=O)OC)(c3cc4c(cc3OC)N(C)C3C(O)(C(=O)NCCSSCCNC(=O)C5(O)C(O)C6(CC)C=CCN7CCC8(c9cc(C%10(C(=O)OC)CC%11CN(CCc%12c%10[nH]c%10ccccc%12%10)CC(O)(CC)C%11)c(OC)cc9N(C)C58)C76)C(O)C5(CC)C=CCN6CCC43C65)C2)C1 (configuration not stated)
survivor count (dose: 1.08 mg/kg/injection, schedule: Q01DX009 (ip), vehicle: saline): 10 of 10
survivor count (dose: 1.8 mg/kg/injection, schedule: Q01DX009 (ip), vehicle: saline): 8 of 10
survivor count (dose: 3.0 mg/kg/injection, schedule: Q01DX009 (ip), vehicle: saline): 6 of 10

O=C1C(=O)c2ccccc2C(O)=C1CC=C(Cl)Cl
survivor count (dose: 100.0 mg/kg/injection, schedule: Q01DX009 (ip), vehicle: Klucel (hydroxypropylcellulose) (HPC)): 8 of 10
survivor count [1]: 4 of 10
survivor count (dose: 400.0 mg/kg/injection, schedule: Q01DX009 (ip), vehicle: Klucel (hydroxypropylcellulose) (HPC)): 0 of 10

NC(=O)c1ncn2c(=O)n(CCCl)nnc12
survivor count (dose: 50.0 mg/kg/injection, schedule: Q01DX009 (ip), vehicle: saline): 10 of 10

CN(C)CCCNc1c2ccccc2nc2cccc([N+](=O)[O-])c12
survivor count (dose: 74.6 micrograms/kg/injection, schedule: Q04DX003 (ip), vehicle: saline): 8 of 8
T/C (dose: 207.0 micrograms/kg/injection, schedule: Q04DX003 (ip), vehicle: saline): 125 % of control
survivor count (dose: 576.0 micrograms/kg/injection, schedule: Q04DX003 (ip), vehicle: saline): 8 of 8
survivor count (dose: 960.0 micrograms/kg/injection, schedule: Q04DX003 (ip), vehicle: saline): 8 of 8
survivor count (dose: 1600.0 micrograms/kg/injection, schedule: Q04DX003 (ip), vehicle: saline): 8 of 8

CC(=O)OCC1OC(n2ccc(N)nc2=O)C(OC(C)=O)C1OC(C)=O (configuration not stated)
T/C (dose: 100.0 mg/kg/injection, schedule: Q01DX009 (ip), vehicle: saline): 144 % of control
survivor count (dose: 200.0 mg/kg/injection, schedule: Q01DX009 (ip), vehicle: saline): 10 of 10

Cc1oc2c(C)c3oc(=O)cc(C)c3cc2c1CCl
survivor count (dose: 100.0 mg/kg/injection, schedule: Q01DX009 (ip), vehicle: saline with Tween-80): 10 of 10
survivor count (dose: 200.0 mg/kg/injection, schedule: Q01DX009 (ip), vehicle: saline with Tween-80): 1 of 10
survivor count [2]: 1 of 10

C[n+]1cccc(NC(=O)c2ccc(NC(=O)C34CCC(C(=O)Nc5ccc(C(=O)Nc6ccc[n+](C)c6)cc5)(CC3)CC4)cc2)c1
survivor count (dose: 20.0 mg/kg/injection, schedule: Q01DX009 (ip), vehicle: saline with Tween-80): 10 of 10
survivor count (dose: 40.0 mg/kg/injection, schedule: Q01DX009 (ip), vehicle: saline with Tween-80): 10 of 10
survivor count (dose: 80.0 mg/kg/injection, schedule: Q01DX009 (ip), vehicle: saline with Tween-80): 6 of 10
survivor count (dose: 160.0 mg/kg/injection, schedule: Q01DX009 (ip), vehicle: saline with Tween-80): 0 of 10

[O-][n+]1c(CN2CCCCC2)nc2cccc3c2c1-c1ccccc1-3
survivor count [2]: 3 of 10

CCCCCc1cc(O)c2c(c1)OC(C)(C)[C@@H]1CCC(C)=C[C@@H]21
survivor count (dose: 25.0 mg/kg/injection, schedule: Q01DX009 (ip), vehicle: other): 10 of 10
survivor count (dose: 50.0 mg/kg/injection, schedule: Q01DX009 (ip), vehicle: other): 10 of 10
survivor count (dose: 100.0 mg/kg/injection, schedule: Q01DX009 (ip), vehicle: other): 10 of 10
survivor count (dose: 400.0 mg/kg/injection, schedule: Q01DX009 (ip), vehicle: other): 10 of 10

OC(C1CO1)C(O)C1CO1 (configuration not stated)
T/C (dose: 2.0 mg/kg/injection, schedule: Q01DX009 (ip), vehicle: saline): 131 % of control
T/C (dose: 4.0 mg/kg/injection, schedule: Q01DX009 (ip), vehicle: saline): 140 % of control
survivor count (dose: 8.0 mg/kg/injection, schedule: Q01DX009 (ip), vehicle: saline): 10 of 10
survivor count (dose: 16.0 mg/kg/injection, schedule: Q01DX009 (ip), vehicle: saline): 7 of 9

Clc1ccc2nnnn2n1
survivor count [2]: 3 of 9

O=P1(N(CCCl)CCCl)NCCCO1 (configuration not stated)
T/C (dose: 60.0 mg/kg/injection, schedule: Q01DX001 (ip), vehicle: saline, evaluated on day 18): 152 % of control
T/C (dose: 60.0 mg/kg/injection, schedule: Q01DX001 (ip), vehicle: saline, evaluated on day 60): 101 [7 of 8 alive], 129 [6 of 8 alive], 152 % of control [7 of 8 alive]
T/C (dose: 90.0 mg/kg/injection, schedule: Q01DX001 (ip), vehicle: saline, evaluated on day 18): 157 % of control
T/C (dose: 90.0 mg/kg/injection, schedule: Q01DX001 (ip), vehicle: saline, evaluated on day 60): 92 [6 of 8 alive], 157 [7 of 8 alive], 229 % of control [7 of 8 alive]
T/C (dose: 90.0 mg/kg/injection, schedule: Q01DX001 (ip), vehicle: saline, evaluated on day 90): 128, 161, 427 % of control
T/C (dose: 100.0 mg/kg/injection, schedule: Q01DX001 (ip), vehicle: saline): 145 % of control
T/C (dose: 133.0 mg/kg/injection, schedule: Q01DX001 (ip), vehicle: saline, evaluated on day 18): 139 % of control
T/C (dose: 133.0 mg/kg/injection, schedule: Q01DX001 (ip), vehicle: saline, evaluated on day 60): 101 [6 of 8 alive], 139, 276 % of control [7 of 8 alive]
T/C (dose: 133.0 mg/kg/injection, schedule: Q01DX001 (ip), vehicle: saline, evaluated on day 90): 150, 157, 182, 428 % of control
T/C (dose: 156.0 mg/kg/injection, schedule: Q01DX001 (ip), vehicle: saline): 132 % of control
T/C (dose: 200.0 mg/kg/injection, schedule: Q01DX001 (ip), vehicle: saline, evaluated on day 18): 187 % of control
T/C (dose: 200.0 mg/kg/injection, schedule: Q01DX001 (ip), vehicle: saline, evaluated on day 60): 138, 187, 276 % of control [6 of 8 alive]
T/C (dose: 200.0 mg/kg/injection, schedule: Q01DX001 (ip), vehicle: saline, evaluated on day 90): 169 [7 of 8 alive], 171, 427, 428 % of control
survivor count (dose: 200.0 mg/kg/injection, schedule: Q01DX001 (ip), vehicle: saline): 10 of 10
T/C (dose: 300.0 mg/kg/injection, schedule: Q01DX001 (ip), vehicle: saline, evaluated on day 18): 230 % of control
T/C (dose: 300.0 mg/kg/injection, schedule: Q01DX001 (ip), vehicle: saline, evaluated on day 60): 230 % of control [7 of 8 alive]
T/C (dose: 300.0 mg/kg/injection, schedule: Q01DX001 (ip), vehicle: saline, evaluated on day 90): 109, 133, 180 [7 of 8 alive], 242 % of control
survivor count (dose: 300.0 mg/kg/injection, schedule: Q01DX001 (ip), vehicle: saline): 5 of 8 and 7 of 8
T/C (dose: 300.0 mg/kg/injection, schedule: Q10DX002 (ip), vehicle: saline): 138 % of control
survivor count (dose: 312.0 mg/kg/injection, schedule: Q01DX001 (ip), vehicle: saline): 6 of 10
survivor count (dose: 400.0 mg/kg/injection, schedule: Q01DX001 (ip), vehicle: saline): 9 of 10
survivor count (dose: 450.0 mg/kg/injection, schedule: Q01DX001 (ip), vehicle: saline): 1 of 8, 4 of 8, 5 of 8
survivor count (dose: 624.0 mg/kg/injection, schedule: Q01DX001 (ip), vehicle: saline): 1 of 10

[Cl][Hg][Cl]
survivor count (dose: 3.12 mg/kg/injection, schedule: Q01DX009 (ip), vehicle: saline): 6 of 10
survivor count (dose: 6.25 mg/kg/injection, schedule: Q01DX009 (ip), vehicle: saline): 1 of 10
survivor count (dose: 12.5 mg/kg/injection, schedule: Q01DX009 (ip), vehicle: saline): 0 of 10

Reference: PubChem BioAssay AID274 (DTP/NCI, 2004)
